In patent publication US20230242640A1:
Substitutions are numbered along the chain they refer to. No constants are given. Whether binding was seen depends on the method and setting. Some results given as binding are weak or reduced against the parent protein; the word gives no strength. Where a sequence is shown, tags or fusion partners need not be part of it. Each block holds one binder with its values, some of them ahead of it.

Biological target: T1, peptide human SIRPgamma …-6His (human)
T1 sequence (peptide): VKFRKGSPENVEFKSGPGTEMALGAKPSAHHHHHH
Test: ELISA on coated peptide SIRPg-His

binding: binds
B1: anti-SIRPg antibody A1 (antibody, human IgG4 S228P, kappa, V domains shown)
VH: EVQLVESGGGVVRPGGSLRLSCAASGFTFDDYGMSWVRQAPGKGLEWVSGINWNGGSTGYADSVKGRFTISRDNAKNSLYLQMNSLRAEDTAVYYCARWIAKVWGQGTLVTVSR
VL: SSELTQDPAVSVALGQTVRITCQGDSLRSYYASWYQQKPGQAPVLVIYGKNNRPSGIPDRFSGSSSGNTASLTITGAQAEDEADYYCNSRDSSGNHVVFGGGTKLTVLR

binding: binds
B2: anti-SIRPg antibody A5 (antibody, human IgG4 S228P, kappa, V domains shown)
VH: B1 VH with W99Q, I100M, A101V, V103L
VL: B1 VL
